Laboratory results from paper PMC4406748.
Results are given in words; binding and its absence hold for the method and conditions named. In cells and extracts the contact can be indirect. Some results given as binding are weak or reduced against the parent protein; the word gives no strength.

Protein sequences, listed by entry. Tags and fused reporters are not part of them.
UniProt O43707: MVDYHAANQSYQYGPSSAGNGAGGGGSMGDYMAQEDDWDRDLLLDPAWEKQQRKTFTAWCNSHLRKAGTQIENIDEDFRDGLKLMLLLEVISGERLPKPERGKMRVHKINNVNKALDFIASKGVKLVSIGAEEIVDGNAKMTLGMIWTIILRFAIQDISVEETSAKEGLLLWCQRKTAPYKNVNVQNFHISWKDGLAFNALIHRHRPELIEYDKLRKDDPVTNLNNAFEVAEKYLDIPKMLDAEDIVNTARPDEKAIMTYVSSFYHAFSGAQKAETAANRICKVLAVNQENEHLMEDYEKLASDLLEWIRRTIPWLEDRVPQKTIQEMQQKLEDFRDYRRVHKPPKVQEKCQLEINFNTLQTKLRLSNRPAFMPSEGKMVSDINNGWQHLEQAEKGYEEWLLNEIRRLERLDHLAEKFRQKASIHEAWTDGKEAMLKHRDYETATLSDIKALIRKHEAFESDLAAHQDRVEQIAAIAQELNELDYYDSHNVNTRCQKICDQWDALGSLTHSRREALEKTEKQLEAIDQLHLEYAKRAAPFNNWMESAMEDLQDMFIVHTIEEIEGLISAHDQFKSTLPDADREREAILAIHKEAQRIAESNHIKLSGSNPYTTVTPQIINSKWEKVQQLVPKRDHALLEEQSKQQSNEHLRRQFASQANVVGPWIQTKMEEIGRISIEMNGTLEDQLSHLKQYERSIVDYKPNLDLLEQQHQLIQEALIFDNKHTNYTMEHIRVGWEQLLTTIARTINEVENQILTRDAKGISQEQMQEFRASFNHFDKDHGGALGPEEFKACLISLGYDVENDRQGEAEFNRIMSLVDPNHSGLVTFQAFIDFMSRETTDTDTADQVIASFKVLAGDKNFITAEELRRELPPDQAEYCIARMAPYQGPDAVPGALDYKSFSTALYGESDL
UniProt P22002: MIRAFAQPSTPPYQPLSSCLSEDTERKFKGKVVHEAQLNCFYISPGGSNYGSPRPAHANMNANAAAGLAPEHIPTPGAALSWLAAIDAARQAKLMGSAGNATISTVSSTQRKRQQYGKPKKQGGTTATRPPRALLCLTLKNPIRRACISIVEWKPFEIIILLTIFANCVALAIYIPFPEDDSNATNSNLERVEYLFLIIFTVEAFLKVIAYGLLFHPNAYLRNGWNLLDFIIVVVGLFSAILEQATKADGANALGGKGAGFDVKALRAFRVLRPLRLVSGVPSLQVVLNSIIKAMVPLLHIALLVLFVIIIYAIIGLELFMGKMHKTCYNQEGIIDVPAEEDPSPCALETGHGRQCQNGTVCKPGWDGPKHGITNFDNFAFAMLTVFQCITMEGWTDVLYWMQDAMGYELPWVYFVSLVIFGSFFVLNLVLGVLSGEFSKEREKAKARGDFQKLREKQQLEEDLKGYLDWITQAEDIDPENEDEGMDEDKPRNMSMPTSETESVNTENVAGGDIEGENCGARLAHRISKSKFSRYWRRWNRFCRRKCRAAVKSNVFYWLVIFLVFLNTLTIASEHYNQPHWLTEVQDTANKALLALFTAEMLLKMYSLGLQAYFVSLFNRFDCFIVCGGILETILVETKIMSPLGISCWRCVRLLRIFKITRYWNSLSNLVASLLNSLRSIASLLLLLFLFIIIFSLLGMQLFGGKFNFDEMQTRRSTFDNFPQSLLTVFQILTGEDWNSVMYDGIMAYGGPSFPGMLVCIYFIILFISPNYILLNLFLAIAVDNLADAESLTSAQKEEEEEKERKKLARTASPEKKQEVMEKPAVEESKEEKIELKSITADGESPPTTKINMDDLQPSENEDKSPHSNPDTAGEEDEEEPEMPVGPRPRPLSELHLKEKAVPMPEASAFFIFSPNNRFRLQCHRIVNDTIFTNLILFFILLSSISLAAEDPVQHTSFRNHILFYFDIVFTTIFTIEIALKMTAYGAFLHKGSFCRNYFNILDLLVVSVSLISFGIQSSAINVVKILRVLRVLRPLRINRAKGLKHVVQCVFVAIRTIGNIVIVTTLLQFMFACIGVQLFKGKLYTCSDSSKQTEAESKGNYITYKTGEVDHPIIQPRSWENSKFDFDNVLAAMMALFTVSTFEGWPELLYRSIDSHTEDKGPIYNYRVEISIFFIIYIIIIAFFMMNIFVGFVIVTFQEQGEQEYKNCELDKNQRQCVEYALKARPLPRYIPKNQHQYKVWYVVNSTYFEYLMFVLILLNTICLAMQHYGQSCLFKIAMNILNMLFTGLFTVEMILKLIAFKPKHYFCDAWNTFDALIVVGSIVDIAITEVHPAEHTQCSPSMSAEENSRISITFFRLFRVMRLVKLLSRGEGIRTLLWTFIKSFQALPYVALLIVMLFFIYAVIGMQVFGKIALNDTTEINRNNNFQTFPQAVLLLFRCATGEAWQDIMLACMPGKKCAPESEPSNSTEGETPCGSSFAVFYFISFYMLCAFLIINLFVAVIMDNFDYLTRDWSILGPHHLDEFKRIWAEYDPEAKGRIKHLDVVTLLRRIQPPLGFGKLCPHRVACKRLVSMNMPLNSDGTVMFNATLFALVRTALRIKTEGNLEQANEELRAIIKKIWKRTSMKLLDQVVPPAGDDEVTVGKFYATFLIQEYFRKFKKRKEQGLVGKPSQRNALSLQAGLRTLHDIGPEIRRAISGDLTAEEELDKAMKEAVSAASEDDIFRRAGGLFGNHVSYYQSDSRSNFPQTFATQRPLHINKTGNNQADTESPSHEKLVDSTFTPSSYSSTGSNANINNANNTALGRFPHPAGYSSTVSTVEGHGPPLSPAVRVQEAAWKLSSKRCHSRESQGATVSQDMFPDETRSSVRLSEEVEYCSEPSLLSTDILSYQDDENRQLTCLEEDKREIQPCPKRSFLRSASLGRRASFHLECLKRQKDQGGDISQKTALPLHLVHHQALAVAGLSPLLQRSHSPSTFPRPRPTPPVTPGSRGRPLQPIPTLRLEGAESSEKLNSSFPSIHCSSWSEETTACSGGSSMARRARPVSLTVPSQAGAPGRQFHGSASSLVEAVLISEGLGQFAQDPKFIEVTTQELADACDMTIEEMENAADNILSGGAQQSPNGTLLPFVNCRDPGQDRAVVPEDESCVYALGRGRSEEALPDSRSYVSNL
UniProt Q9QXQ0: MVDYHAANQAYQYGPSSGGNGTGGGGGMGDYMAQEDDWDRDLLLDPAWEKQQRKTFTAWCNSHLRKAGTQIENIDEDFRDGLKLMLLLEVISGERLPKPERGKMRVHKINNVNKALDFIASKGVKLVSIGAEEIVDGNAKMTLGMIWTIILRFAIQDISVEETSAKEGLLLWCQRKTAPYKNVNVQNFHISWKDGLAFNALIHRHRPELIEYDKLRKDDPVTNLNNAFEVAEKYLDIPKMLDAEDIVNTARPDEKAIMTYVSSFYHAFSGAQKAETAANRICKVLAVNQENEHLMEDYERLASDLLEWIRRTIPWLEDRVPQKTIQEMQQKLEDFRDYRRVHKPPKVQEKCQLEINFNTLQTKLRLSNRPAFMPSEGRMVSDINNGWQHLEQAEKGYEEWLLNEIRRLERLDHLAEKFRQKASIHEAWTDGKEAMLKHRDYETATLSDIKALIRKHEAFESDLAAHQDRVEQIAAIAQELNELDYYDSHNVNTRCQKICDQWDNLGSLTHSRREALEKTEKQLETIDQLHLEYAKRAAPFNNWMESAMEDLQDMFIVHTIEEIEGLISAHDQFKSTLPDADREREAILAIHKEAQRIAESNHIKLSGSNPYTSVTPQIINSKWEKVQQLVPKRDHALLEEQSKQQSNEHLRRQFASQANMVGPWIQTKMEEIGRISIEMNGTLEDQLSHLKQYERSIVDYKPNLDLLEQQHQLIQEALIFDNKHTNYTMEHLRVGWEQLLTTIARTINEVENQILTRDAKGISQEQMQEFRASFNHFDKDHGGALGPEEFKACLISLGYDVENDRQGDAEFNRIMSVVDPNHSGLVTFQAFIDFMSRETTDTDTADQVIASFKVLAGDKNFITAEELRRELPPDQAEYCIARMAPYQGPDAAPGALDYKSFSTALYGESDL

Legend:
[1] = biological target: GST-actinin 4 fusion protein (UniProt O43707); assay: pull-down; 3 μg purified GST fusion protein on glutathione beads, incubated with 1~2 mg lysate of transfected Ros 17/2.8 cells for 2 h at 4°C; lysis buffer 1% NP40, 0.5% sodium deoxycholate, 0.1% SDS in PBS; western blot; cells untreated or treated with 20 μM forskolin for 24 h (also with 5 μM H89), or lysates treated with forskolin in vitro; only the target purified
[2] = biological target: L-type calcium channel β3 subunit (UniProt P54287); assay: co-IP; anti-β3 subunit antibody on Protein A beads, lysate (RIPA buffer) of β3-transfected Ros 17/2.8 cells without forskolin treatment; blot with anti-actinin 4 antibody
[3] = biological target: L-type calcium channel β3 subunit (UniProt P54287); assay: co-IP; anti-β3 subunit antibody on Protein A beads, lysate (RIPA buffer) of β3-transfected Ros 17/2.8 cells treated with 20 μM forskolin for 24 h; blot with anti-actinin 4 antibody

Substance	binding [1]	binding [2]	binding [3]
L-type calcium channel α1c subunit (from UniProt P22002 1-2169)	no binding	–	–
L-type calcium channel β3 subunit (from UniProt P54287 1-484)	binds	–	–
actinin 4 (endogenous in Ros 17/2.8 cells) (from UniProt Q9QXQ0 1-911)	–	no binding (condition: cells without forskolin treatment)	binds
